Construct, isoform or probe ends are uncertain for at least one entry. For some of these results: At least one verdict was read from the data and is not stated in words by the source.
Legend:
[1] = target: Klenow Fragment D424A C907S/L744C Cy3B (UniProt P00582); test: single-molecule FRET (protein-DNA); settings: 100 pM labelled Pol, binary complex detected; dT-C6-amino linker at labelled dT; single-molecule confocal FRET in solution; about 100 pM labelled species, Pol titrated (1 nM for binary complex); recombinant protein; protein details: N-terminal His6, Cy3B on L744C; label: acceptor (Atto647N) at varied positions
[2] = target: Klenow Fragment D424A C907S/K550C Cy3B (UniProt P00582); test: single-molecule FRET (protein-DNA); settings: 100 pM labelled Pol, binary complex detected; dT-C6-amino linker at labelled dT; single-molecule confocal FRET in solution; about 100 pM labelled species, Pol titrated (1 nM for binary complex); recombinant protein; protein details: N-terminal His6, Cy3B on K550C; label: acceptor (Atto647N) at varied positions
[3] = target: Klenow Fragment D424A, C907+ Cy3B (UniProt P00582); test: single-molecule FRET (protein-DNA); settings: 100 pM labelled Pol, binary complex detected; dT-C6-amino linker at labelled dT; single-molecule confocal FRET in solution; about 100 pM labelled species, Pol titrated (1 nM for binary complex); recombinant protein; protein details: N-terminal His6, Cy3B on C907; label: acceptor (Atto647N) at varied positions
[4] = target: DNA polymerase I Klenow Fragment (Pol) D424A (UniProt P00582); test: single-molecule FRET titration; settings: KD1, Pol-DNA binary complex; dT-C6-amino linkers at labelled dT; single-molecule confocal FRET in solution; about 100 pM labelled species, Pol titrated (1 nM for binary complex); recombinant protein; protein details: N-terminal His6
[5] = target: DNA polymerase I Klenow Fragment (Pol) D424A (UniProt P00582); test: quenchable single-molecule FRET; settings: 3 nM Pol, reduced quenching on binding; dT-C6-amino linkers at labelled dT; single-molecule confocal FRET in solution; about 100 pM labelled species, Pol titrated (1 nM for binary complex); recombinant protein; protein details: N-terminal His6
[6] = target: DNA polymerase I Klenow Fragment (Pol) D424A (UniProt P00582); test: single-molecule FRET; settings: dT-C6-amino linkers at labelled dT, single-molecule confocal FRET in solution, about 100 pM labelled species, Pol titrated (1 nM for binary complex), recombinant protein, protein details: N-terminal His6

CCACGAAGCAGGCTCTACTCTCTAGGGATGTATGGTAATGGGACGAAGAATGAGG / CCTCATTCTTCGTCCCATTACCATACATCC / TAGAGAGTAGAGCCTGCTTCGTGG [1-nt gapped DNA substrate, acceptor only]
binding result [1]: binds
binding result [2]: binds
binding result [3]: binds

CCACGAAGCAGGCTCTACTCTCTAGGGATGTATGGTAATGGGACGAAGAATGAGG / CCTCATTCTTCGTCCCATTACCATACATCC / TAGAGAGTAGAGCCTGCTTCGTGG [1-nt gapped DNA substrate]
Kd [4]: 0.36 nM

CCACGAAGCAGGCTCTACTCTCTAGGGATGTATGGTAATGGGACGAAGAATGAGG / CCTCATTCTTCGTCCCATTACCATACATCC / TAGAGAGTAGAGCCTGCTTCGTGG [gapped DNA T(+1)B(+4)]
binding result [5]: binds

CCACGAAGCAGGCTCTACTCTCTAGGGATGTATGGTAATGGGACGAAGAATGAGG / CCTCATTCTTCGTCCCATTACCATACATCC / TAGAGAGTAGAGCCTGCTTCGTGG [gapped DNA T(-12)T(+8)]
binding result ([6]; large FRET change on Pol binding in vitro, label: Cy3B and/or Atto647N at T(-12) and T(+8)): binds

CCACGAAGCAGGCTCTACTCTCTAGGGATGTATGGTAATGGGACGAAGAATGAGG / CCTCATTCTTCGTCCCATTACCATACATCC / TAGAGAGTAGAGCCTGCTTCGTGG [gapped DNA T(-18)T(+15)]
binding result ([6]; binary and high-FRET (Pol)2-DNA complexes in vitro, label: Cy3B and/or Atto647N at T(-18) and T(+15)): binds
